PubChem BioAssay AID652259 – Drosophila RNAi Screening Center, 2013

Purpose: 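Identify new Wingless signalling regulators in fly cells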 (primary screen)
Cell system: Drosophila clone 8 imaginal disc epithelial cells
Knock-down reagent: long dsRNA against Drosophila genes
Challenge: pathway stimulated by co-transfected Wingless expression plasmid
Measured: 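Dual luciferase reads per well after Wingless plasmid stimulation: reporter firefly light and Renilla control light; activity is firefly divided by Renilla, a ratio not deposited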
Direction: firefly reporter light: higher = more Wg reporter light, before normalisation; Renilla control light: higher = more transfected or surviving cells
Rule for the call: 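a knock-down is a candidate when at least two out of four statistical tests show it departing from its plate mean; one test alone signals a weak candidate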
Calls: active = candidate regulator (raises or lowers reporter); inactive = not a candidate
The screen tested about 22,000 reagents; this is a random part of those with a known target gene and a result. Of all reagents, 233 (1.1%) are marked active. 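Light values are raw, unnormalised plate reads; the ratio scores behind the reporter calls were not deposited.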 A number with no mark means an inactive call. A plus sign joins genes that one reagent is predicted to hit. The record does not give: the amount of reagent, the time to read-out, the dose of the treatment.

predicted target,amplicon,"firefly reporter light, replicate 1","firefly reporter light, replicate 2","Renilla control light, replicate 1","Renilla control light, replicate 2"
xmas-1 (retired record),DRSC20386,14949,,9636,
CG13245,DRSC02243,12565,,3909,
CG11842,DRSC14400,4512,10490,2148,1493
CG31909,DRSC22180,9.59e5,9.42e5,4.89e5,4.46e5
Task7,DRSC16477,9552,,3290,
EcR,DRSC04906,4555,13984,966,3312
EcR,DRSC04910,8773,,2391,
CG31806,DRSC02787,1659,7002,669,3345
CG13724,DRSC10053,11770,,3456,
CG7220,DRSC05235,14690,,11632,
CG7220,DRSC07018,1989,7106,681,3181
CycT,DRSC11124,1339,,664,
kmr,DRSC12986,5292,,2028,
kmr,DRSC14827,20231,,2634,
kmr,DRSC14828,9762,,1457,
kmr,DRSC16472,6002,,2333,
CG13870,DRSC06429,4280,,1858,
CG13028,DRSC09908,9588,,3962,
CG30031 + deltaTry + CG30025 + 1 more,DRSC21262,16005,,6864,
Rbp1,DRSC16817,5095,,2512,
Chro,DRSC11630,6412,,1610,
CysRS,DRSC05948,10545,,2757,

Reprinted from above (5 entries):
predicted target,amplicon,"firefly reporter light, replicate 1","firefly reporter light, replicate 2","Renilla control light, replicate 1","Renilla control light, replicate 2"
CG7220,DRSC05235,14690,,11632,
CG7220,DRSC07018,1989,7106,681,3181
CycT,DRSC11124,1339,,664,
kmr,DRSC12986,5292,,2028,
kmr,DRSC14827,20231,,2634,

More reagents:
predicted target,amplicon,"firefly reporter light, replicate 1","firefly reporter light, replicate 2","Renilla control light, replicate 1","Renilla control light, replicate 2"
CG8219,DRSC10971,1696,7986,1248,3088
CG15431,DRSC00446,2882,4519,851,1981
Calr,DRSC16614,6762,,2017,
CG5199,DRSC11770,15100,,4336,
Ddrgk1,DRSC15897,4614,5099,1308,1939
Eig71Ej,DRSC11157,4535,,2982,
Mics1,DRSC12537,20209,,5506,
CG17068,DRSC20545,3536,11433,1970,4200
sstn,DRSC10753,6376,,3101,
Mlp60A,DRSC04623,2057,5617,306,1192
Mlp60A,DRSC22233,4.94e5,6.09e5,2.22e5,2.75e5
Mlp60A,DRSC22481,6.56e5,5.57e5,1.76e5,22696
CG12990,DRSC19510,14628,,7879,
Mgat3,DRSC01305,24546,,9865,
CG10862,DRSC08170,5088,,2279,
CG5174,DRSC06920,21781,,5392,
APC4,DRSC18360,3458,11365,1066,3184
CG11590,DRSC19411,17675,,7905,
CG5539,DRSC04510,2560,6562,827,2392
sxe2,DRSC15692,2295,6938,640,2482
CG33255 (retired record) + hpRNA:CR32205 + CR42838,DRSC09611,4124,,1592,
CG3635,DRSC03729,2796,5989,1051,2386
stv,DRSC09796,8754,,1634,
stv,DRSC10111,7026,,2954,
Trmt112,DRSC11685,28336,,6773,
CG8066,DRSC16374,8608,,3252,
CG34025,DRSC08014,2872,,1393,
